Binding data for one molecule are collected here from paper PMC10936415.

Results are given in words; binding and its absence hold for the method and conditions named. In cells and extracts the contact can be indirect. Here binding means that the protein was enriched with, or labelled near, the bait; the list need not be complete.

For this assay, the target named is Legionella hackeliae Lha0223 (VipF ortholog), 6xHis-SBP-tagged (Legionella hackeliae). The assay can be described thus: affinity purification with mass spectrometry; only the target purified.

B1: DEAD-box helicase 57 (protein, UniProt Q6P158 1-1386)
chain: MSSSVRRKGKPGKGGGKGSSRGGRGGRSHASKSHGSGGGGGGGGGGGGGNRKASSRIWDDGDDFCIFSESRRPSRPSNSNISKGESRPKWKPKAKVPLQTLHMTSENQEKVKALLRDLQEQDADAGSERGLSGEEEDDEPDCCNDERYWPAGQEPSLVPDLDPLEYAGLASVEPYVPEFTVSPFAVQKLSRYGFNTERCQAVLRMCDGDVGASLEHLLTQCFSETFGERMKISEAVNQISLDECMEQRQEEAFALKSICGEKFIERIQNRVWTIGLELEYLTSRFRKSKPKESTKNVQENSLEICKFYLKGNCKFGSKCRFKHEVPPNQIVGRIERSVDDSHLNAIEDASFLYELEIRFSKDHKYPYQAPLVAFYSTNENLPLACRLHISEFLYDKALTFAETSEPVVYSLITLLEEESEIVKLLTNTHHKYSDPPVNFLPVPSRTRINNPACHKTVIPNNSFVSNQIPEVEKASESEESDEDDGPAPVIVENESYVNLKKKISKRYDWQAKSVHAENGKICKQFRMKQASRQFQSILQERQSLPAWEERETILNLLRKHQVVVISGMTGCGKTTQIPQFILDDSLNGPPEKVANIICTQPRRISAISVAERVAKERAERVGLTVGYQIRLESVKSSATRLLYCTTGVLLRRLEGDTALQGVSHIIVDEVHERTEESDFLLLVLKDIVSQRPGLQVILMSATLNAELFSDYFNSCPVITIPGRTFPVDQFFLEDAIAVTRYVLQDGSPYMRSMKQISKEKLKARRNRTAFEEVEEDLRLSLHLQDQDSVKDAVPDQQLDFKQLLARYKGVSKSVIKTMSIMDFEKVNLELIEALLEWIVDGKHSYPPGAILVFLPGLAEIKMLYEQLQSNSLFNNRRSNRCVIHPLHSSLSSEEQQAVFVKPPAGVTKIIISTNIAETSITIDDVVYVIDSGKMKEKRYDASKGMESLEDTFVSQANALQRKGRAGRVASGVCFHLFTSHHYNHQLLKQQLPEIQRVPLEQLCLRIKILEMFSAHNLQSVFSRLIEPPHTDSLRASKIRLRDLGALTPDERLTPLGYHLASLPVDVRIGKLMLFGSIFRCLDPALTIAASLAFKSPFVSPWDKKEEANQKKLEFAFANSDYLALLQAYKGWQLSTKEGVRASYNYCRQNFLSGRVLQEMASLKRQFTELLSDIGFAREGLRAREIEKRAQGGDGVLDATGEEANSNAENPKLISAMLCAALYPNVVQVKSPEGKFQKTSTGAVRMQPKSAELKFVTKNDGYVHIHPSSVNYQVRHFDSPYLLYHEKIKTSRVFIRDCSMVSVYPLVLFGGGQVNVQLQRGEFVVSLDDGWIRFVAASHQVAELVKELRCELDQLLQDKIKNPSIDLCTCPRGSRIISTIVKLVTTQ
Regarding B1, the binding entry is “binds”.
